# According to publication PMC9402538, “Rational design of a sensitivity-enhanced tracer for discovering efficient APC–Asef inhibitors” (Nature Communications, 2022):
# Where “and” joins values, the source holds several entries; their conditions need not be identical. Equal values may be shown once. Further values from the same series stand in other lists. Where a SMILES comes first, the peptide text is derived from it. The star is where a group is joined. Benzoyl(4-OMe) = COc1ccc(C(=O)*)cc1
# Tested on: SW480 cells
# Experiment: xCELLigence RTCA-DP migration assay, SW480
# Assay type: cell-based
# Method: Real-time cell migration was evaluated using the xCELLigence RTCA-DP system (Roche). Briefly, SW480 cells were serum-starved for 8 h, digested, and resuspended in serum-free medium. The wells in the upper chamber of CIM plate 16 were preequilibrated with 30 μL serum-free medium for 1 h and filled with 100 μL of 4 × 10^4 serum-starved SW480 cells per well. The wells in the lower chamber of CIM plate 16 were filled with complete medium. […] Cell index values were detected every 15 min throughout the procedure, and the data were collected and analyzed with RTCA software (version 2.3).
smiles,measurement,setting,value
COc1ccc(C(=O)N[C@@H](C)C(=O)NCC(=O)N[C@@H](CCC(=O)O)C(=O)N[C@@H](CO)C(=O)N[C@@H](CC(C)C)C(=O)N[C@@H](Cc2ccc(O)cc2)C(=O)N[C@@H](CCC(=O)O)C(N)=O)cc1 [MAI-516] ({Benzoyl(4-OMe)}-AGESLYE-NH2),Cell index,"50 μM, Time 22.62 h",0.3561 and 0.3866 and 0.3429 and 0.3008
same,Cell index,"50 μM, Time 22.87 h",0.3599 and 0.3932 and 0.3497 and 0.3016
same,Cell index,"50 μM, Time 23.12 h",0.3651 and 0.3955 and 0.3493 and 0.3031
same,Cell index,"50 μM, Time 23.37 h",0.3681 and 0.4 and 0.3523 and 0.3026
same,Cell index,"50 μM, Time 23.62 h",0.3761 and 0.404 and 0.3595 and 0.3069
same,Cell index,"50 μM, Time 23.87 h",0.3781 and 0.4107 and 0.3623 and 0.3088
same,Cell index,"50 μM, Time 24.13 h",0.3852 and 0.417 and 0.3688 and 0.3143
same,Cell index,"50 μM, Time 24.38 h",0.3926 and 0.4236 and 0.3847 and 0.3169
same,Cell index,"50 μM, Time 24.63 h",0.4013 and 0.4296 and 0.3922 and 0.319
same,Cell index,"50 μM, Time 24.88 h",0.4017 and 0.4354 and 0.3929 and 0.3231
same,Cell index,"50 μM, Time 25.13 h",0.4117 and 0.4452 and 0.4003 and 0.3262
same,Cell index,"50 μM, Time 31.13 h",0.5421 and 0.5962 and 0.5187 and 0.4382
same,Cell index,"50 μM, Time 31.38 h",0.5467 and 0.6048 and 0.5227 and 0.4454
same,Cell index,"50 μM, Time 31.63 h",0.5564 and 0.6132 and 0.5311 and 0.4518
same,Cell index,"50 μM, Time 31.88 h",0.5605 and 0.6211 and 0.535 and 0.4572
same,Cell index,"50 μM, Time 32.13 h",0.5688 and 0.6291 and 0.5408 and 0.4657
same,Cell index,"50 μM, Time 32.38 h",0.5797 and 0.6341 and 0.5457 and 0.4727
same,Cell index,"50 μM, Time 32.63 h",0.5878 and 0.6429 and 0.5572 and 0.4801
same,Cell index,"50 μM, Time 32.88 h",0.5939 and 0.6521 and 0.5609 and 0.4862
same,Cell index,"50 μM, Time 33.13 h",0.6022 and 0.6623 and 0.5714 and 0.4928
same,Cell index,"50 μM, Time 33.38 h",0.6081 and 0.6729 and 0.5785 and 0.4987
same,Cell index,"50 μM, Time 33.63 h",0.614 and 0.6806 and 0.5847 and 0.5044
same,Cell index,"50 μM, Time 33.88 h",0.6215 and 0.6868 and 0.5924 and 0.5115
same,Cell index,"50 μM, Time 34.13 h",0.6356 and 0.6923 and 0.6021 and 0.5177
same,Cell index,"50 μM, Time 34.38 h",0.6401 and 0.7044 and 0.6053 and 0.5256
same,Cell index,"50 μM, Time 34.63 h",0.6529 and 0.7124 and 0.6173 and 0.5306
same,Cell index,"50 μM, Time 34.88 h",0.6619 and 0.7185 and 0.6246 and 0.5379
same,Cell index,"50 μM, Time 35.13 h",0.667 and 0.728 and 0.6275 and 0.542
same,Cell index,"50 μM, Time 35.38 h",0.6772 and 0.7373 and 0.635 and 0.5531
same,Cell index,"50 μM, Time 35.63 h",0.685 and 0.7469 and 0.6437 and 0.5562
same,Cell index,"50 μM, Time 35.88 h",0.6962 and 0.7542 and 0.6482 and 0.5646
same,Cell index,"50 μM, Time 36.13 h",0.7058 and 0.7637 and 0.6585 and 0.5718
same,Cell index,"50 μM, Time 36.38 h",0.7141 and 0.7728 and 0.6618 and 0.5758
same,Cell index,"50 μM, Time 36.63 h",0.7247 and 0.7817 and 0.6744 and 0.5793
same,Cell index,"50 μM, Time 36.88 h",0.7358 and 0.7874 and 0.6805 and 0.5893
same,Cell index,"50 μM, Time 37.13 h",0.7419 and 0.7989 and 0.6897 and 0.5966
same,Cell index,"50 μM, Time 37.39 h",0.7558 and 0.8061 and 0.7004 and 0.614
same,Cell index,"50 μM, Time 37.64 h",0.7639 and 0.8156 and 0.7092 and 0.6216
same,Cell index,"50 μM, Time 37.89 h",0.7743 and 0.8268 and 0.7188 and 0.6272
same,Cell index,"50 μM, Time 38.14 h",0.7819 and 0.8407 and 0.7268 and 0.6361
same,Cell index,"50 μM, Time 38.39 h",0.7946 and 0.8524 and 0.7366 and 0.6435
same,Cell index,"50 μM, Time 38.64 h",0.8039 and 0.86 and 0.7448 and 0.6537
same,Cell index,"50 μM, Time 38.89 h",0.8101 and 0.8739 and 0.7511 and 0.662
same,Cell index,"50 μM, Time 39.14 h",0.8205 and 0.8857 and 0.7593 and 0.67
same,Cell index,"50 μM, Time 39.39 h",0.8335 and 0.8934 and 0.7723 and 0.6807
same,Cell index,"50 μM, Time 39.64 h",0.8442 and 0.9052 and 0.7809 and 0.6865
same,Cell index,"50 μM, Time 39.89 h",0.854 and 0.9182 and 0.7888 and 0.6936
same,Cell index,"50 μM, Time 40.14 h",0.8644 and 0.9311 and 0.7962 and 0.7011
same,Cell index,"50 μM, Time 40.39 h",0.8773 and 0.9372 and 0.8045 and 0.7151
same,Cell index,"50 μM, Time 40.64 h",0.8842 and 0.9485 and 0.8154 and 0.7203
same,Cell index,"50 μM, Time 40.89 h",0.8938 and 0.9613 and 0.8235 and 0.7327
same,Cell index,"50 μM, Time 41.14 h",0.9101 and 0.9751 and 0.8441 and 0.7441
same,Cell index,"50 μM, Time 41.39 h",0.9146 and 0.989 and 0.8503 and 0.7519
same,Cell index,"50 μM, Time 41.64 h",0.9298 and 0.9952 and 0.8604 and 0.7628
same,Cell index,"50 μM, Time 41.89 h",0.9372 and 1.0089 and 0.8714 and 0.7698
same,Cell index,"50 μM, Time 42.14 h",0.9444 and 1.0226 and 0.877 and 0.7789
same,Cell index,"50 μM, Time 42.39 h",0.9589 and 1.0381 and 0.8905 and 0.786
same,Cell index,"50 μM, Time 42.64 h",0.969 and 1.0469 and 0.8974 and 0.7965
same,Cell index,"50 μM, Time 42.89 h",0.9779 and 1.0607 and 0.905 and 0.8034
same,Cell index,"50 μM, Time 43.14 h",0.9925 and 1.0749 and 0.9143 and 0.8113
same,Cell index,"50 μM, Time 43.39 h",1.0063 and 1.0897 and 0.9269 and 0.8241
same,Cell index,"50 μM, Time 43.64 h",1.0187 and 1.1046 and 0.9395 and 0.8332
same,Cell index,"50 μM, Time 43.89 h",1.0301 and 1.1202 and 0.9492 and 0.8507
same,Cell index,"50 μM, Time 44.14 h",1.0418 and 1.1362 and 0.9606 and 0.8607
same,Cell index,"50 μM, Time 44.39 h",1.0518 and 1.1501 and 0.9692 and 0.8706
same,Cell index,"50 μM, Time 44.64 h",1.0682 and 1.1654 and 0.9859 and 0.8819
same,Cell index,"50 μM, Time 44.89 h",1.08 and 1.1787 and 1.0032 and 0.8919
same,Cell index,"50 μM, Time 45.14 h",1.0876 and 1.1878 and 1.0141 and 0.9033
same,Cell index,"50 μM, Time 45.39 h",1.1067 and 1.2005 and 1.0361 and 0.9146
same,Cell index,"50 μM, Time 45.64 h",1.1162 and 1.2055 and 1.0458 and 0.9251
same,Cell index,"50 μM, Time 45.89 h",1.1262 and 1.2183 and 1.0621 and 0.9335
same,Cell index,"50 μM, Time 46.14 h",1.1344 and 1.2352 and 1.0722 and 0.9429
same,Cell index,"50 μM, Time 46.39 h",1.1499 and 1.2435 and 1.0822 and 0.9582
same,Cell index,"50 μM, Time 46.64 h",1.1582 and 1.2674 and 1.0929 and 0.9721
same,Cell index,"50 μM, Time 46.89 h",1.1772 and 1.2804 and 1.1062 and 0.9851
same,Cell index,"50 μM, Time 47.14 h",1.1935 and 1.301 and 1.1224 and 0.9981
same,Cell index,"50 μM, Time 47.39 h",1.2029 and 1.3188 and 1.1286 and 1.0124
same,Cell index,"MAI-516 50 μM, time 47.64 h, replicate wells, FigS10a",1.2152 and 1.3376 and 1.1436 and 1.0218
same,Cell index,"MAI-516 50 μM, time 47.89 h, replicate wells, FigS10a",1.2285 and 1.3503 and 1.1545 and 1.0396
same,Cell index,"MAI-516 50 μM, time 48.14 h, replicate wells, FigS10a",1.2455 and 1.3567 and 1.1705 and 1.0522
same,Cell index,"MAI-516 50 μM, time 48.39 h, replicate wells, FigS10a",1.2589 and 1.3707 and 1.1858 and 1.057
same,Cell index,"MAI-516 50 μM, time 48.64 h, replicate wells, FigS10a",1.2746 and 1.3868 and 1.1999 and 1.0694
